# Tests used:
# [1] = Oral absorption study in mice; assay type: in vivo, mice of ddY strain; details: 100 mg/kg, only deesterified Compound (28) detected
# Method: 5-week-old male mice of ddY strain were used after fasting overnight. The test compounds in 1% physiological saline solution at a dose of 100 mg/kg were administered orally to a group of 2 mice. Blood was taken from the vena jugularis at 15, 30, 60 and 120 minutes after dosing.
# [2] = In situ absorption from rat intestinal loop; assay type: in vivo, rats of Wistar strain; details: rat jejunal loop, 20 mg/kg; only deesterified Compound (28) detected
# Method: 7-week-old male rats of Wistar strain were used after fasting overnight. After anesthetizing the animals with ether, the intestine was exteriorized and an acute loop of 30 cm length was prepared from the upper part of jejunum by ligature of both ends. 0.2% physiological saline solutions of the test compounds were injected at a dose of 20 mg/kg into the loop with a syringe, and the loop was returned. About 0.4 ml blood was taken from the vena jugularis at 10, 30, 60 and 120 minutes after dosing.
compound,measurement,setting,value
"C[C@@H](O)[C@H]1C(=O)N2C(C(=O)OCOC(=O)C(C)(C)C)=C(SC3CN(C4=NCCS4)C3)[C@H](C)[C@H]12 [Compound (32), pivaloyloxymethyl (1R,5S,6S)-2-[1-(1,3-thiazolin-2-yl)azetidin-3-yl]thio-6-[(R)-1-hydroxyethyl]-1-methyl-carbapen-2-em-3-carboxylate]",plasma level of the administered ester itself,[1],undetectable
same,plasma level of the administered ester itself,[2],undetectable
